# Taken from: PubChem BioAssay AID1259308 (NCATS, 2017)
# Screen: 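Candidate targets for better recombinant protein yield in mammalian cells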 (primary screen)
# Cells: human HEK293 embryonic kidney cells stably expressing firefly luciferase (HEK-CMV-Luc2-Hygro)
# Reagents: single siRNA against human genes, 0.8 pmol siRNA per well
# Duration: 72 h
# Measurement: 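Luciferase light (ONE-Glo) measured on one replicate plate set and viability (CellTiter-Glo) on the other, scaled to a negative control siRNA, with robust z-scores and luciferase per cell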
# Direction: total luciferase, z-score and total luciferase, % of control: higher = more reporter protein produced
# Active means: 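Active when the median/MAD z-score for overall luciferase is greater than 3; a gene was taken forward for validation with new siRNAs if at least two of its three siRNAs passed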
# Calls: active = raised luciferase; inactive = no rise
# Shown is an unselected part of about 59,000 reagents tested. Over the whole deposit, about 1,510 (2.6%) are marked active. 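Calls use total luciferase alone and ignore viability, so some active siRNAs may act by altering cell number.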 The numbers tell different reagents against one gene apart. Not all columns of the deposit are shown.
target gene,siRNA no.,"total luciferase, z-score","total luciferase, % of control",activity call
CMKLR1,1,0.991,102,inactive
CMKLR1,2,0.558,93,inactive
CMKLR1,3,0.472,91.3,inactive
TRIM44,1,-0.573,70.5,inactive
TRIM44,2,1.59,113,inactive
TRIM44,3,-0.634,69.3,inactive
RPS15AP17,1,-2.05,41.2,inactive
RPS15AP17,2,-1.04,61.2,inactive
RPS15AP17,3,-1.74,47.2,inactive

Looked up above:
For “total luciferase, % of control”, TRIM44 #3 reads 69.3
Under “total luciferase, z-score”, CMKLR1 #3 is entered as 0.472

Additional results follow:
target gene,siRNA no.,"total luciferase, z-score","total luciferase, % of control",activity call
FAM13C,1,0.0449,82.8,inactive
FAM13C,2,1.37,109,inactive
FAM13C,3,0.701,95.8,inactive
DBF4P1,1,-2.25,37,inactive
DBF4P1,2,-0.116,79.6,inactive
DBF4P1,3,-1.28,56.5,inactive
RPL30,1,-2.62,29.9,inactive
RPL30,2,-2.76,27,inactive
RPL30,3,-2.92,23.8,inactive
FYRD1,1,-0.616,69.6,inactive
FYRD1,2,-0.00283,81.8,inactive
FYRD1,3,-1.14,59.2,inactive
PDCD1LG2,1,-0.0808,80.3,inactive
PDCD1LG2,2,1.35,109,inactive
PDCD1LG2,3,-0.373,74.5,inactive
